From paper PMC10163288
The other results are listed elsewhere or left out.

B1: il10ra_site1_normal_mot_HHH_b1_06994_000000193_0001_40_55_H_._HHH_b1_00400_0001_0000100001_0000002_0 (protein)
chain: SSSDKEERELVRAALRLVEQAVKAGDEETAEFLVISMELLAEELNDPELRELVEQAEELINSSSS
B2: il10ra_site1_normal_mot_HHH_b2_04912_000000028_0001_1_20_H_._HHH_b1_06894_0001_0000300011_0000001_1 (protein)
chain: SSSSSDLLQEVLELSKRAFRLALRGNPEEAREVLEEAAELAEELGNPDLLRVLRELLQALSSSSS
B3: il10ra_site1_normal_mot_HHH_b2_06767_000000020_0001_41_56_H_._HHH_b1_04040_af2_0001_0000200011_0000001_0_af2pred_0001 (protein)
chain: SSSSDREEVLQLLLEISRLLQEGNKEEAEELLEEVKELVEEIGDERLKLSVRFLEALVKSLSSSS
B4: il10ra_site1_sap_21_mot_HHH_b1_05326_000000242_0001_1_20_H_._HHH_b1_00201_af2_0001_0000500048_0000001_0_0001 (protein)
chain: SSSSDLHEQVFELLREAAELRSEGNPEEAREVVREALEIAEEMGSQLFEFNAEFVLRDIEESSSS
B5: il10ra_site1_sap_7_mot_HHH_b1_06786_000000000_0001_1_20_H_._HHH_b2_05728_af2_0001_0000400011_0000001_0_0001 (protein)
chain: SSSSSSSSVEEEVEELLEEAKHVSPEEATELLARALEVAYEGNNEELLREIWKVVEELSSSSSSS
B6: il10ra_site1_sap_10_mot_HHH_b2_03038_000000109_0001_1_20_H_._HHH_b1_00021_af2_0001_0000300016_0000002_1_0001 (protein)
chain: SSSSDLEELLEELKELIEEGDREKAAKLIQRIIRAAFRNSDPEALHAVWKLLRELEELAERSSSS
B7: il10ra_site1_sap_23_mot_HHH_b1_05860_000000142_0001_1_19_H_._HHH_b1_02122_0001_0000100013_0000001_0_0001 (protein)
chain: SSSSSSDVEEEIEELIEEARHIEDPHEALRVLKRALHLAFQIRNEELLQAIWRVARELSSSSSSS
B8: il10ra_site1_normal_mot_HHH_b1_05937_af2_000000262_0001_20_37_H_._HHH_b1_00702_0001_0000200014_0000001_0 (protein)
chain: SSSSDREEVEELLEELEEAYKEGDHEKFLRLIIRAARLIFRIGDDELMRLLHELAKRLASSSSSS
B9: il10ra_site1_normal_mot_HHH_b2_00033_000000036_0001_41_54_H_._HHH_b1_01859_0001_0000400022_0000002_0 (protein)
chain: SSSSSSEEEAEELVEELEELIRRGDHEKVIRASAEAVRIVMELGNEEAFQRLWELVKEFASSSSS
B10: il10ra_site1_normal_mot_HHH_b2_06142_af2_000000101_0001_1_18_H_._HHH_b1_05714_0001_0000200009_0000002_0 (protein)
chain: SSSDEEIERRAFQLLIEIFHLLRKGNREEAEELLKELEKLREELGDPSVQNALAAAEMLVKSSSS
B11: il10ra_site1_sap_18_mot_HHH_b2_04679_000000194_0001_21_38_H_._HHH_b1_05122_0001_0000100001_0000001_0_0001 (protein)
chain: SSSSDVRRRIQQLLVEAHHALWKGDREKAEELLEELEELVREHNDRKARLVVESLERIIEESSSS
B12: il10ra_site1_sap_13_mot_8677146645409c09fa773dfa88d80d04_0001_1_000000098_0001_1_14_H_._HHH_b1_02768_0001_0000100002_0000002_0_0001 (protein)
chain: SSSSDQAMEVVVKFVLEVAEETARKDPERARHQLEALLEHLRQAGDPELIEEVEELLEELSSSSS
B13: il10ra_site1_normal_mot_HHH_b1_06914_000000280_0001_1_18_H_._HHH_b2_03127_0001_0000400018_0000001_0_af2pred_0001 (protein)
chain: SSSSSLSERVYELLREAIEAHSEGDPEEAERIVEEAEELAEEGGNLNLLAIARFLLEIITSSSSS
B14: il10ra_site1_normal_mot_HHH_b1_05697_000000276_0001_40_57_H_._HHH_b1_08314_af2_0001_0000300023_0000001_0_af2pred_0001 (protein)
chain: SSSSDREEFHIEALLRLAELTAEAGNPKAARRKVEFAYKAAEELGNEELLEEAERLLKELSSSSS
B15: il10ra_site1_sap_16_mot_HHH_b2_04592_000000276_0001_41_54_H_._a2bf7c1b5df5f4a6a28f683756f784c8_0001_1_0001_0000100002_0000001_0_0001 (protein)
chain: SSSDESQRVYELLREAMELLDDGDEEEARELIEEAERLAEELNNWTFRRNVELLQRELEAISSSS
B16: il10ra_site1_sap_27_mot_HHH_b1_03262_af2_000000181_0001_43_57_H_._ems_3hM_2924_af2_0001_0000200007_0000001_0_0001 (protein)
chain: SSSSDADELYELLKKIIELFSEGDDEEAERLIEELEKLAKELNNWVILMVLRMILEELERRSSSS
B17: il10ra_site1_sap_21_mot_HHH_b1_01693_000000146_0001_1_17_H_._HHH_b2_04774_0001_0000200019_0000002_0_0001 (protein)
chain: SSSSSDDERSLKRMLEALERAVELGDEEYIRLATKFIKAMARAANDPEVEERAEELLREFGSSSS
B18: il10ra_site1_sap_19_mot_HHH_b2_02053_af2_000000006_0001_3_19_H_._HHH_b1_07370_0001_0000100001_0000002_0_0001 (protein)
chain: SSSSSDEEVEELLKEAEELAEEGNPEEAAKVLLEAVRLAIQAGDEEALQKVWEVVKELAKSSSSS
B19: il10ra_site1_sap_21_mot_HHH_b2_01447_af2_000000258_0001_1_20_H_._HHH_b1_00686_af2_0001_0000100006_0000001_0_0001 (protein)
chain: SSSSREEEIMARFQVMALVQTFNLSEEQEKLLEELAKELLEEGVDPREIAVRLFELARRLGSSSS
B20: il10ra_site1_sap_22_mot_HHH_b2_01729_af2_000000109_0001_43_56_H_._HHH_b1_03556_0001_0000200009_0000001_0_0001 (protein)
chain: SSSSSDEEELEELIRRIEELIEEGDDEEAVKVLQKLSHLAFRLNDQEVLEIILELAKRLRSSSSS
B21: il10ra_site1_normal_mot_HHH_b2_00475_000000107_0001_44_57_H_._HHH_b1_04775_af2_0001_0000100002_0000002_1 (protein)
chain: SSSSDEEQKVSQLLFRAVRLYYEGNPEEAEKLVEEALEIAKELNDPELEEYARIALHFIRNSSSS
B22: il10ra_site1_normal_mot_HHH_b1_06914_000000280_0001_1_18_H_._HHH_b1_02402_0001_0000300025_0000002_0_af2pred_0001 (protein)
chain: SSSSDRREIVRLSRKAIELLAEGDDEEARRVVEEAEEIAEENNNEVARVVLEFLLELIEKNSSSS
B23: il10ra_site1_sap_17_mot_HHH_b2_02497_000000141_0001_1_20_H_._HHH_b1_05715_af2_0001_0000500024_0000001_0_0001_af2pred_0001 (protein)
chain: SSSSSEIEEEVEELLEQAKRIDDLARRTYVLIRAYALAYKNNNEELLRKVREIAIKLSEESSSSS
B24: il10ra_site1_normal_mot_HHH_b2_02337_000000026_0001_38_52_H_._HHH_b2_06018_0001_0000100009_0000001_0 (protein)
chain: SSSSSDEEELEELLEELRRLVEEGDRERAAELAQRILRLAAELQDQEALQLLWKLVQELASSSSS

Target: il10ra, Q13651
Assay: yeast display titration

Apparent Kd, inactive:
B1 no binding seen
B2 no binding seen
B3 no binding seen
B4 no binding seen
B5 no binding seen
B6 no binding seen
B7 no binding seen
B8 no binding seen
B9 no binding seen
B10 no binding seen
B11 no binding seen
B12 no binding seen
B13 no binding seen
B14 no binding seen
B15 no binding seen
B16 no binding seen
B17 no binding seen
B18 no binding seen
B19 no binding seen
B20 no binding seen
B21 no binding seen
B22 no binding seen
B23 no binding seen
B24 no binding seen

Quoted at random: two records from the list
Apparent Kd, inactive:
B12 no binding seen
B19 no binding seen
